Reference: US20120208208A1
Results are given in words; binding and its absence hold for the method and conditions named. Some results given as binding are weak or reduced against the parent protein; the word gives no strength.

Amino acid sequences for entries named in this document (tags omitted). Residues count along the entry.
UniProt Q80W65, residues 35-694: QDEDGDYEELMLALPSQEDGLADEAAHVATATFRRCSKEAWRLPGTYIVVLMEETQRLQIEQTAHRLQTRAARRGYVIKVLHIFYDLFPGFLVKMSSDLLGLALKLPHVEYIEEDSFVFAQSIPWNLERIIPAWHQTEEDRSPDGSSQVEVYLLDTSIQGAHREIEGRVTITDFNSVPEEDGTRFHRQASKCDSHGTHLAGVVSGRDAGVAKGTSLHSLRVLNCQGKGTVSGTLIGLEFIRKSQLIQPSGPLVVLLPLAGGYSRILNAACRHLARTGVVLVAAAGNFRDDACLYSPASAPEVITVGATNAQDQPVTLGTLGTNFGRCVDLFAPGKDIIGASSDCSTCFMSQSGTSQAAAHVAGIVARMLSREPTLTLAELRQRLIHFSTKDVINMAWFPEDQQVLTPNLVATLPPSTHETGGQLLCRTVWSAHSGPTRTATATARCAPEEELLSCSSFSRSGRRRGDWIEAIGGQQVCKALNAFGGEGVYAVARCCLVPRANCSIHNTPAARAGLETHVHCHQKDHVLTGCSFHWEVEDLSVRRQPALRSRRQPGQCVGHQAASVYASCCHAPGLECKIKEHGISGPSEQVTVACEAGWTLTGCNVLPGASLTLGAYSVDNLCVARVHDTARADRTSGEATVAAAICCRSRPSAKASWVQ

Target: mouse PCSK9 (mouse) (UniProt Q80W65)
Test: statement in the DELFIA example; biotinylated Fab used as detection reagent for mouse PCSK9

binding: binds
B1: anti-PCSK9 Fab 1A08 (2CX1A08 Fab, PCSK9_2_CX1_A08) (Fab, V domains shown)
VH: QVQLVQSGAEVKKPGESLKISCKGSGYSFSTYWIGWVRQMPGKGLEWMGIIDPGDSFTRYSPSFQGQVTISADKSISTAYLQWSSLKASDTAMYYCARGYHDEPYGFFDVWGQGTLVTVSS
VL: DIQMTQSPSSLSASVGDRVTITCRASQDISNYLTWYQQKPGKAPKLLIYAASSLQSGVPSRFSGSGSGTDFTLTISSLQPEDFATYYCFQFDNVPLTFGQGTKVEIKR
modifications: biotinylated (sites not given)
